# Primary screen of a compound library

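Growth of Mycobacterium tuberculosis over 4 days (cholesterol / DPPC medium with tyloxapol); the read-out is not stated. Tested at 50 µM. Direction is inferred from retests: higher values go with more growth inhibition. Size under these conditions: about 69,000 compounds, about 370 of them at 50% or above in at least one test.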

The filed quantity is “Percent Effect” (%). The controls that fix the scale are not given in the record; negative values are as filed. Compounds were drawn at random from those tested, without regard to their results. Two or more numbers in one place are separate tests of the same structure; such repeats can differ widely.

Compound,effect
O=C(O)C(F)(F)F.O=C(O)C(F)(F)F.c1cc(CNCC2OCCc3cn(CC4CC4)nc32)cs1 (stereo not drawn),7.769 & -5.421
CCn1c(C2CCCN2Cc2noc(C(C)(C)C)n2)nc2ccccc21 (stereo not drawn),13.95
COC(=O)c1ccc(C2SC(C)=Nc3c2c(=O)[nH]n3C2CCCC2)cc1 (stereo not drawn),5.53
Cc1cc(C)n(CCNC(=O)c2ncc[nH]2)c(=O)n1,2.824
Cc1noc(C)c1CN(C)C(=O)NC1CCN(c2ncccn2)CC1,0.8281
Cc1cc(C)n(Cc2cccc(C(=O)N3CCOCC3(C)C)c2)n1,7.362 & -8.565
Cl.Cn1nc(C2CCCN(Cc3cc(F)cc(F)c3)C2)c2nccnc21 (stereo not drawn),23.48
c1cncc(CN2CCC(c3n[nH]c(C4CC4)n3)CC2)c1,-84.93
Cc1nc(CN(C)C2CCN(CCCOc3ccccc3)C2)no1 (stereo not drawn),-15.45
O=C(O)C(F)(F)F.O=C(c1cnccn1)N1CCC2(CC1)CCN(Cc1ccccn1)C2=O,-19.85
Cc1ccc(CNC(=O)c2ccc(=O)n(C)n2)c(OCC2CC2)c1,22.13
N#Cc1c[nH]nc1NCc1ccc2c(c1)OCO2,11.47
CN1CCN(Cc2cscn2)CC(C(=O)N(C)C)C1 (stereo not drawn),-1.653
CSCC(=O)N1CCc2c(cnc(C)c2-c2noc(-c3cc[nH]n3)n2)C1,14.63
CNC(=O)C1Cn2ccnc2C2(CCN(CCF)CC2)O1 (stereo not drawn),3.197
Cc1nc(C)n(CC2CCCCN2c2ncnc3ccsc23)n1 (stereo not drawn),3.436
CS(=O)(=O)N1C[C@@H](O)[C@H](N2CCN(c3ccccc3)CC2)C1,-25.09
CCc1cnc(C)nc1NC(CC)c1cnn(C)c1 (stereo not drawn),-7.264
c1ccc(CN2CCN(Cc3cnc(C4CCCCO4)nc3)CC2)cc1 (stereo not drawn),-13.92
CCN1CC[C@]2(CN(C(=O)[C@H]3CCCO3)C[C@H]2c2ccccc2)C1=O,5.281
CNS(=O)(=O)CC(=O)NC(C)Cc1cccc(Cl)c1 (stereo not drawn),4.039
Cc1cc(C)n(Cc2ccc(C(=O)NCCN3CCOCC3)cc2)n1,-2.126
O=C(O)C(F)(F)F.O=C(O)C(F)(F)F.O=C1COC2(COCCN(Cc3cccnc3)C2)CN1c1ccoc1 (stereo not drawn),14.18
Cc1cnn(CC(C)NCc2ccc(OCc3cscn3)cc2)c1 (stereo not drawn),17.45
COc1nn(C)c2c1CCCN(S(=O)(=O)c1cccc(F)c1)C2,10.09 & -3.66
COCC1COCCC12CCN(C(=O)CCc1ccccc1C)CC2 (stereo not drawn),-46.3
O=C(NCCc1nncn1C1CC1)c1cc2ccccn2c1,8.957
CN(C)C(CNC(=O)N(Cc1ccco1)C1CC1)c1cccs1 (stereo not drawn),-9.761
Cc1cn2nc(Sc3nnnn3C)sc2n1,-25.59
CC(=O)N1CCC(N2CCOC[C@H]2c2nc(C(C)(C)C)c[nH]2)CC1,-11.75
O=C1CC(c2ccccc2)C2(CCN(Cc3ccccn3)CC2)N1 (stereo not drawn),-9.072
COc1c(C2CCCN2c2ncnc3c2CCC3)c(C)nn1C (stereo not drawn),-3.606
Cc1cccc(CN2CCC3(CCN(Cc4ccccn4)C3)C2=O)c1.O=C(O)C(F)(F)F.O=C(O)C(F)(F)F (stereo not drawn),11.35
CCOc1nnc(CN2CCN(CCOC)C(CC)C2)s1 (stereo not drawn),-7.087 & -5.036
CC(C)NC(=O)[C@@H]1C[C@@H](N)CN1C(=O)CCSCc1ccc(F)cc1,4.009
c1cncc(-c2noc(CN3CCCC(Cn4cncn4)C3)n2)c1 (stereo not drawn),-28.38
Cc1nn(C)c(C)c1C1CCCN1C(=O)CCCn1cccn1 (stereo not drawn),-13.34
Cc1nn(C)c(Cl)c1S(=O)(=O)N(C)C,-29.87
c1ccc(CN2CCCC2Cn2cncn2)nc1 (stereo not drawn),16.36
Cc1ncsc1CCN(C)C1CCN(c2ncnc3[nH]cnc23)CC1,-20.36
COc1cccc(CN2CCC3(COCc4cnc(N(C)C)nc43)C2)c1.O=C(O)C(F)(F)F (stereo not drawn),5.981
Cc1cccc(CN2CCN(c3nc(CO)cs3)CC2)c1,8.465
CN(C(=O)Cc1ccc2c(c1)OCCO2)C1CCCC1,7.736
CCSc1ncc(CN2CCN(c3ccc(C#N)cc3)C(=O)C2)cn1,-3.329
Cc1ccccc1NC(=O)NCC(C)(O)c1cccs1 (stereo not drawn),0.05702
NC(=O)c1cnc2n1CCN(C(=O)c1ccc(Cn3cccc3)cc1)C2,-21.2
O=C(O)C(F)(F)F.O=C1CC[C@]2(CC[C@@H](NC(=O)NCc3cccnc3)CC2)N1,-18.74
CCN(Cc1nc2c(cnn2C)c(=O)[nH]1)c1cc(C)ccc1C,-15.06
Cc1ccc(N2CC[C@@H](NC(=O)c3cnccn3)[C@H](O)C2)nn1,6.187
CNCCc1nc2cc(Cl)ccc2[nH]1.Cl.Cl,-31.31
CCC(C)N(Cc1ccc(C)cc1)Cc1c[nH]c(C)n1 (stereo not drawn),11.31
c1cc(CN(CCCn2ccnc2)Cc2ccoc2)ccn1,2.055
O=C(NCCCO)c1nnsc1-c1ccccc1,-18.15
O=S(=O)(Cc1ccc(F)cc1)NCc1ccco1,-1.636
Cc1cc(C(=O)N2CCC3(CC2)COCCN(c2cccnc2)C3)[nH]n1.O=C(O)C(F)(F)F,-2.451
O=C1NCCCc2c1oc1ccc(O)c(CN3CCOCC3)c21,-55.24
COc1ccc(/C=C/CN2CCN(c3nccnc3C)CC2)cc1,6.047
CC(C)n1cc(CN2CCCN(C(=O)CC3CCCO3)CC2)cn1 (stereo not drawn),-22.93
CN(C)C(=O)CC1CC2(CCN(Cc3ccco3)CC2)c2ccccc21.O=C(O)C(F)(F)F (stereo not drawn),-19.14
CC(C)c1ccc(NC2CCCN(Cc3ccncc3)C2)cc1 (stereo not drawn),21.35
Cc1ccc(CN2CC3(CCN(C(=O)Cc4ccc(Cl)cc4)C3)C2)o1,3.929
Cn1cc(CN2CCCN(CCCc3ccccc3)CC2)cn1,9.567
CC(=O)N1CCC(NC(=O)N2CCN(c3cnccn3)CC2)CC1,-4.872
COc1ccccc1OCC(=O)n1nc(C)c(C)c1C,9.571
NC(=O)c1ccc(CN2CCCC(O)C2)cc1 (stereo not drawn),2.155 & -2.907
COCC(=O)N1CCC(c2ccc(OC)cc2)C1 (stereo not drawn),6.731
CN(CC(C)(C)O)C1CCCN(Cc2noc(C3CC3)n2)C1 (stereo not drawn),-70.24
Cc1ccc(C(C)(O)CNC(=O)c2sccc2Br)o1 (stereo not drawn),20.14
CC(SCCNS(=O)(=O)c1cnn(C)c1)c1cccc(F)c1 (stereo not drawn),8.225
Cc1cc(C)nc(N2CC[C@H](Oc3ccccc3F)[C@@H](O)CC2)n1,-6.035 & 5.273
CCc1ccc(C(NCC(N)=O)C(C)(C)C)o1 (stereo not drawn),-9.931
COCCC(=O)N1CCCCC1c1ccc(F)cc1 (stereo not drawn),5.039
COc1ccccc1CNC(=O)COc1c(C)n(C)ccc1=O,-25.52
CC(=O)NCC(=O)N1Cc2nc(COCc3csc(C)n3)oc2C1,9.659
c1ccc(C2CCCN(c3cncc(-n4cccn4)n3)CC2)cc1 (stereo not drawn),26.46
O=C(CCc1nc2ccccc2[nH]1)NC1CCOC2(CCOCC2)C1 (stereo not drawn),-27.94
COCc1cc(N(C)Cc2c(C)nn(C)c2C)n2nccc2n1,-11.6
COc1ccc(NC(=O)CCSc2ccc3nncn3n2)c(OC)c1,4.478
O=C(O)C1CCCN1c1nc(C2CC2)cc(C(F)(F)F)n1 (stereo not drawn),-9.015
COCCOCC(=O)Nc1ccc(Br)cc1F,13.87
O=C(NC[C@H]1OC[C@@H](NCc2ccccc2F)[C@@H]1O)Nc1ccccc1,16.98
Cl.OC(CNCc1ccccc1C(F)(F)F)c1ccccc1 (stereo not drawn),20.66
O=S(=O)(Cc1ccc(F)cc1)NCc1nnc2n1CCC2,-10.24
CCS(=O)(=O)N(C)CCCNC(=O)c1cc(Cl)cc2cccnc12,-21.98
CC(=O)N1CCN(C(=O)NC(C)Cn2ccnc2)CC1 (stereo not drawn),9.511
CCN(Cc1nc2c(cnn2C)c(=O)[nH]1)c1cccc(C)c1C,-20.38
CC(C)(C#N)C(=O)N1CCCC(c2cc(C(F)(F)F)[nH]n2)C1 (stereo not drawn),-6.698
O=C(O)C(F)(F)F.[H][C@]12CCN(C(=O)NCc3cccnc3)C[C@@]1([H])OCCN(C(C)=O)C2,6.029
CCCN(CCC)C(=O)CN1CCCC1C(=O)N(C)C (stereo not drawn),-1.057

For reference, 8 entries once more:

| Compound | effect |
|---|---|
| `COCCC(=O)N1CCCCC1c1ccc(F)cc1` (stereo not drawn) | 5.039 |
| `CN(C(=O)Cc1ccc2c(c1)OCCO2)C1CCCC1` | 7.736 |
| `Cc1nn(C)c(C)c1C1CCCN1C(=O)CCCn1cccn1` (stereo not drawn) | -13.34 |
| `O=S(=O)(Cc1ccc(F)cc1)NCc1nnc2n1CCC2` | -10.24 |
| `NC(=O)c1ccc(CN2CCCC(O)C2)cc1` (stereo not drawn) | 2.155 & -2.907 |
| `COc1c(C2CCCN2c2ncnc3c2CCC3)c(C)nn1C` (stereo not drawn) | -3.606 |
| `COc1ccccc1CNC(=O)COc1c(C)n(C)ccc1=O` | -25.52 |
| `Cc1cc(C)nc(N2CC[C@H](Oc3ccccc3F)[C@@H](O)CC2)n1` | -6.035 & 5.273 |

Source: ChEMBL document CHEMBL3988442, “University of Dundee, Small-Polar-MMV Screening Library” (2021).